The campaign covered roughly 52,000 sequences. About 210 (0.4%) were called active.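 The calls were made as follows: active = gene whose silencing raises cell survival under the drug, median off-target-corrected z-score across its silencing RNAs 2 or more; inactive = the rest.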 Some of the results follow.

Among the data in PubChem BioAssay AID1347423 (Functional Genomics Laboratory (NCATS/FGL), 2020) are z-score values, retold here.

The assay in a line: Resistance to Poly (ADP-Ribose) Polymerase inhibitor: Gene Identification via Genome-wide siRNA Screen. The note with it: mouse BRCA2 R2336H ES cells, olaparib, CellTiter-Glo viability; stronger effect = higher value. In a few lines:
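Mouse BRCA2 R2336H ES cells were reverse-transfected with siRNA (20 nM final), treated at 48 h with 500 nM olaparib, and read by CellTiter-Glo after 72 h. Scores: MAD-based z per siRNA, median per gene, seed off-target correction.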
In general terms: In ATP-based viability assays light output follows the ATP content of the culture.
For the sequence GCCUGGUACAGAACCAGUATT against Ntsr2, the z-score is inactive: 0.908.
GGCUUUGGACAGAAUGUGGTT against Itgam: the z-score was inactive: -0.477.
As for “GGAAAAAGAGUCCUUCAUGTT against A730017C20Rik”, the z-score is inactive: 1.13.
GGCAGAUGGCAAAGAAUUATT against Pbxip1: the z-score is inactive: 0.792.
For GGCUUUCUUUCCCAUCGAUTT against Dpf2 the value was inactive: 0.139.
Under GGCCUCAGACCUUCUAUGATT against Mtap stands inactive: 1.56; under GGAUCAAUCAAUGACAGUGTT against Tbn, inactive: -0.996.
Regarding GGGAGAUGCAACAACAAGATT against Epx, the z-score is inactive: 1.18.
Take GGUGUGAGUGUAAGUUUAUTT against Wnt16: the z-score is inactive: 0.371.
For GGCAACUGUUUCUGCUCCGTT against Ap4e1, the z-score was inactive: 1.07.
Turning to GGGAGAAGAAAACUGGCUATT against Pnlip, the z-score is inactive: 0.259.
Consider “CCGAUGCAUCUGCUUUAUUTT against 4931419K03Rik”, for which the z-score is inactive: -0.514.
GGCAACUUUUUACACAAAGTT against V1rc7: the z-score is inactive: 0.139.
Regarding GGCCUUUUACAAUGGAACCTT against Slc2a9, the z-score is inactive: 0.844.
For CCCUAGAGGCAGAUGCAAATT against MGC54654 the value was inactive: 0.199.
As to GGUGUUGCAUUCAGAUUUUTT against Ian4, the z-score was inactive: -0.696.
As to GCCUACAGAGAUCUAUAAUTT against Gmds, the z-score is inactive: -0.896.
For GGUCGAAGUGGACAUCUUUTT against Grik4 the value was inactive: 0.612; for GGAUGCUAUUGUGAAUGUGTT against Dnmt3b, inactive: -1.53.
For the sequence GGAUAACUUUAUGAAUGAGTT against Loxl3, the z-score is inactive: 0.414.
For the sequence “GGCUUCUUCCUAGAAAUGCTT against 0610012H03Rik”, the z-score is inactive: 0.436.
GGAACACAAUGGGACGAGUTT against Ccl11: the z-score was inactive: 0.233.
In the case of “GCUAGGAACGAGGAGCUAATT against B230206N24Rik”, the z-score is inactive: -2.7.
For the sequence GGCCGGAUGGCUCCAUUAUTT against Mmp28, the z-score was inactive: -2.48.
For GGUAAAGAAAGCCUUUUUUTT against Prkag1, the z-score is inactive: 0.254.
For GCCCUUCAAAAGGAGCAGUTT against Cap1, the z-score was inactive: -0.833.
For CCAGAUUGGUGAUGGUAGUTT against LOC432637 the value was inactive: 0.502; for GCACCAAGCGUGUAAAAACTT against Mterf, inactive: 1.65.
Consider GGUACUAUUAACAAACACUTT against BB128963, for which the z-score was inactive: -0.282.
For “GCGGAGGCAUUGCUAAUGATT against 0610027B03Rik” the value was inactive: 0.715; for “CGCUACCUACAGAAUAACATT against 4933440H19Rik”, inactive: -0.672.
With “GGCUGCUUUACUGAAGUAATT against 1700052H20Rik”, the z-score is inactive: -1.27.
In the case of “GCCUAUACAACCCUAUUGUTT against 9030409G11Rik”, the z-score was inactive: 0.173.
As to “GCAACUUCUAAAGGUCCUATT against D130038B21Rik”, the z-score is inactive: 1.03.
On to “GGAGAGCAGUGAUAACCAGTT against C530008M17Rik”, for which the z-score was inactive: -0.436.
Consider CCAAAGAUUGCUUUCACAATT against Ube2d1, for which the z-score is inactive: -1.6.
With CGGUCCUGAAUGAUCCUACTT against Gp2, the z-score is inactive: 2.43.
In the case of “GCUGCCUCAUUUCUGGAUGTT against 2310015I08Rik”, the z-score is inactive: -1.36.
For CGAUGAUAACGAAAUGAACTT against Scn3a, the z-score was inactive: 0.178.
On to CCUUCUAGACACCAUACCCTT against Lrdd, for which the z-score is inactive: -0.398.
Under GGUUUAUGACAAACUGAAATT against Enpp4 stands inactive: 0.306; under GGAAGAUUCAUGUUCCUAUTT against Mug1, inactive: 0.629; under GGAACAUCAUCCACUGGAATT against Crhr1, inactive: 0.111.
Turning to GGGCUGUUUAACAAGAUCATT against BC052066, the z-score was inactive: 0.108.
With GGACUUAAAAGUCACAUCATT against Tcf4, the z-score was inactive: 0.936.
As to GCUUGAAUGUUAAAGCCAATT against Fbxo34, the z-score was inactive: -1.49.
With GGUGGAGAUUAUUCAUGUUTT against Dpp8, the z-score is inactive: 0.565.
On to CCUCGGCGAGAUAUUGUGUTT against Gal3st1, for which the z-score is inactive: 0.152.
For “GGACUUGAUGACAGUGAAUTT against 2610019A05Rik”, the z-score was inactive: -1.85.
Turning to GGGAGCAAAGAGGAACAGCTT against Ttc11, the z-score is inactive: 2.32.
As to GCAGCUUGUGCAUAUUUGATT against Gm433, the z-score was inactive: -0.321.
As to GGAAAAGCUCAAUGUCCUCTT against Tex13, the z-score was inactive: 0.051.
Consider GGGAAAGGGCAUUUUCUUUTT against Znrf1, for which the z-score was inactive: 0.879.
Consider GGAGAGUGAUGAACAGAUGTT against Pctp, for which the z-score is inactive: -1.27.
In the case of AUCCCAAAGUUCGUUGUUATT against Olfr307, the z-score was inactive: 0.474.
For the sequence CCCAUUUAUUCUCCUUUAUTT against Smurf1, the z-score is inactive: -1.22.
In the case of “CGAUGAUAAAACGAACAAGTT against 4833424O15Rik”, the z-score was inactive: -1.35.
In the case of GCUACGAAUACAUGCGACATT against Plekhj1, the z-score was inactive: 0.752.
As to CGUACAACAACUAACUUUATT against Ube2v2, the z-score was inactive: 1.07.
Take GGUGGGAUUGUUCUUAAAUTT against Drap1: the z-score is inactive: 0.656.
On to GGAACAAAGAAAUGCAAUATT against Ncr1, for which the z-score was inactive: 0.348.
Consider GGAGAAAUGGAUCACAUUGTT against H2afx, for which the z-score is inactive: -1.36.
Regarding GGAUUUCGAGAACAACCUCTT against Daf1, the z-score is inactive: -0.275.
For the sequence GGCUGAUCGACUUAGAGCUTT against Pkp3, the z-score is inactive: 0.119.
Consider GGCCUUUGUUCAGUCCUCCTT against Zfp371, for which the z-score is inactive: 0.816.
As to GGACAAUUCCAUGCUUCCCTT against Il24, the z-score is inactive: 0.803.
Take CCAGUAUGAGAACUACGAUTT against Loxl1: the z-score is inactive: 1.13.
